Reference: publication doi:10.1101/2021.12.01.470696
No constants are given. Whether binding was seen depends on the method and setting. Binding seen in cells or lysates may run through a third protein. Some binding calls cover weakened binding; strength is not graded here. For some assays here: Where a sequence is shown, tags or fusion partners need not be part of it.

Protein sequences, listed by entry. Tags and fused reporters are not part of them.
UniProt Q7Z434: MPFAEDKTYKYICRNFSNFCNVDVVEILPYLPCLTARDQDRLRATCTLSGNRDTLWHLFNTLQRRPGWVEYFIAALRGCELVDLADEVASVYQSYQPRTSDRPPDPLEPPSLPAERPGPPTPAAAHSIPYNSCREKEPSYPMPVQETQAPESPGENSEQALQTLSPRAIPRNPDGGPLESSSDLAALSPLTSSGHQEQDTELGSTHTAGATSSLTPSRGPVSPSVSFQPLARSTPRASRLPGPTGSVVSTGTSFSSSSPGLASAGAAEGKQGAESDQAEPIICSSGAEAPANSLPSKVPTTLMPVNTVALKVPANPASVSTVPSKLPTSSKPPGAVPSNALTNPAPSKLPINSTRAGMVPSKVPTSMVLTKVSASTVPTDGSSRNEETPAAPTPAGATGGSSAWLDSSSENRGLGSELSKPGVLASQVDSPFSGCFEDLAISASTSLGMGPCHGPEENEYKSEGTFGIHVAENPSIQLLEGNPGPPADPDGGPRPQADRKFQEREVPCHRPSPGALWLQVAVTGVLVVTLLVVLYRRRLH

T1: Flag-IRF3 (UniProt Q14653)
T1 sequence: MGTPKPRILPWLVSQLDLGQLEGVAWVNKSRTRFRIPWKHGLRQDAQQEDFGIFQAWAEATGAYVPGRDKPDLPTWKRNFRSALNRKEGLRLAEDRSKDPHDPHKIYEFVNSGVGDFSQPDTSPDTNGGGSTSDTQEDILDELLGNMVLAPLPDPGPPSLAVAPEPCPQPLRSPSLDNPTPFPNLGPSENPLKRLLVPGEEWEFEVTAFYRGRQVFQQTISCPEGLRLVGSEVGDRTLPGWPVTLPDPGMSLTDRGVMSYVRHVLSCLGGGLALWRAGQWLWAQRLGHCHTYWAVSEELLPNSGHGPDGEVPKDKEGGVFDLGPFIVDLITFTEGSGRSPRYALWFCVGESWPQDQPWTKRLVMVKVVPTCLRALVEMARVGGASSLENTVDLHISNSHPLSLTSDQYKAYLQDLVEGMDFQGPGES

T2: endogenous IRF3 (HEK293T cells) (human (endogenous in HEK293T)) (UniProt Q14653)
T2 sequence: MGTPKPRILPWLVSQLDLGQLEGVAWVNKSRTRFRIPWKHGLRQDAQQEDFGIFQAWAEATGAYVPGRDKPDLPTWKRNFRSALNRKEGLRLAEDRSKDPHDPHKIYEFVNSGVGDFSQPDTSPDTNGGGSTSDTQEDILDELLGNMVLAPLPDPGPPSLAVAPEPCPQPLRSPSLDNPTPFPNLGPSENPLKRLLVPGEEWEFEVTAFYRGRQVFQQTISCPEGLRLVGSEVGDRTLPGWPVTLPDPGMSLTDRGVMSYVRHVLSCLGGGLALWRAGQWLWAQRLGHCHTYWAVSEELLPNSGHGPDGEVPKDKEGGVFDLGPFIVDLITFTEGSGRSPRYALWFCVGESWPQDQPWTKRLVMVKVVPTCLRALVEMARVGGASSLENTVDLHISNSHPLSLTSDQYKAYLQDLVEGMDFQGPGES


What was measured:
Experiment in all cases: co-IP
Flag-IRF3 = target: T1, Flag-IRF3
[1] = target: T2, endogenous IRF3 (HEK293T cells) (human (endogenous in HEK293T))
Flag-MAVS = Flag-MAVS (UniProt Q7Z434)

binding (Flag-IRF3) | binding [1] | Binder | further results
binds | – | HA-IKKε (enzyme, UniProt Q14164 1-716) MQSTANYLWHTDDLLGQGATASVYKARNKKSGELVAVKVFNTTSYLRPREVQVREFEVLRKLNHQNIVKLFAVEETGGSRQKVLVMEYCSSGSLLSVLESPENAFGLPEDEFLVVLRCVVAGMNHLRENGIVHRDIKPGNIMRLVGEEGQSIYKLTDFGAARELDDDEKFVSVYGTEEYLHPDMYERAVLRKPQQKAFGVTVDLWSIGVTLYHAATGSLPFIPFGGPRRNKEIMYRITTEKPAGAIAGAQRRENGPLEWSYTLPITCQLSLGLQSQLVPILANILEVEQAKCWGFDQFFAETSDILQRVVVHVFSLSQAVLHHIYIHAHNTIAIFQEAVHKQTSVAPRHQEYLFEGHLCVLEPSVSAQHIAHTTASSPLTLFSTAIPKGLAFRDPALDVPKFVPKVDLQADYNTAKGVLGAGYQALRLARALLDGQELMFRGLHWVMEVLQATCRRTLEVARTSLLYLSSSLGTERFSSVAGTPEIQELKAAAELRSRLRTLAEVLSRCSQNITETQESLSSLNRELVKSRDQVHEDRSIQQIQCCLDKMNFIYKQFKKSRMRPGLGYNEEQIHKLDKVNFSHLAKRLLQVFQEECVQKYQASLVTHGKRMRVVHETRNHLRLVGCSVAACNTEAQGVQESLSKLLEELSHQLLQDRAKGAQASPPPIAPYPSPTRKDLLLHMQELCEGMKLLASDLLDNNRIIERLNRVPAPPDV | –
– | binds | endogenous IKKε (HEK293T cells) (enzyme, UniProt Q14164 1-716) MQSTANYLWHTDDLLGQGATASVYKARNKKSGELVAVKVFNTTSYLRPREVQVREFEVLRKLNHQNIVKLFAVEETGGSRQKVLVMEYCSSGSLLSVLESPENAFGLPEDEFLVVLRCVVAGMNHLRENGIVHRDIKPGNIMRLVGEEGQSIYKLTDFGAARELDDDEKFVSVYGTEEYLHPDMYERAVLRKPQQKAFGVTVDLWSIGVTLYHAATGSLPFIPFGGPRRNKEIMYRITTEKPAGAIAGAQRRENGPLEWSYTLPITCQLSLGLQSQLVPILANILEVEQAKCWGFDQFFAETSDILQRVVVHVFSLSQAVLHHIYIHAHNTIAIFQEAVHKQTSVAPRHQEYLFEGHLCVLEPSVSAQHIAHTTASSPLTLFSTAIPKGLAFRDPALDVPKFVPKVDLQADYNTAKGVLGAGYQALRLARALLDGQELMFRGLHWVMEVLQATCRRTLEVARTSLLYLSSSLGTERFSSVAGTPEIQELKAAAELRSRLRTLAEVLSRCSQNITETQESLSSLNRELVKSRDQVHEDRSIQQIQCCLDKMNFIYKQFKKSRMRPGLGYNEEQIHKLDKVNFSHLAKRLLQVFQEECVQKYQASLVTHGKRMRVVHETRNHLRLVGCSVAACNTEAQGVQESLSKLLEELSHQLLQDRAKGAQASPPPIAPYPSPTRKDLLLHMQELCEGMKLLASDLLDNNRIIERLNRVPAPPDV | –
– | – | HA-MDA5 (protein, UniProt Q9BYX4 1-1025) MSNGYSTDENFRYLISCFRARVKMYIQVEPVLDYLTFLPAEVKEQIQRTVATSGNMQAVELLLSTLEKGVWHLGWTREFVEALRRTGSPLAARYMNPELTDLPSPSFENAHDEYLQLLNLLQPTLVDKLLVRDVLDKCMEEELLTIEDRNRIAAAENNGNESGVRELLKRIVQKENWFSAFLNVLRQTGNNELVQELTGSDCSESNAEIENLSQVDGPQVEEQLLSTTVQPNLEKEVWGMENNSSESSFADSSVVSESDTSLAEGSVSCLDESLGHNSNMGSDSGTMGSDSDEENVAARASPEPELQLRPYQMEVAQPALEGKNIIICLPTGSGKTRVAVYIAKDHLDKKKKASEPGKVIVLVNKVLLVEQLFRKEFQPFLKKWYRVIGLSGDTQLKISFPEVVKSCDIIISTAQILENSLLNLENGEDAGVQLSDFSLIIIDECHHTNKEAVYNNIMRHYLMQKLKNNRLKKENKPVIPLPQILGLTASPGVGGATKQAKAEEHILKLCANLDAFTIKTVKENLDQLKNQIQEPCKKFAIADATREDPFKEKLLEIMTRIQTYCQMSPMSDFGTQPYEQWAIQMEKKAAKEGNRKERVCAEHLRKYNEALQINDTIRMIDAYTHLETFYNEEKDKKFAVIEDDSDEGGDDEYCDGDEDEDDLKKPLKLDETDRFLMTLFFENNKMLKRLAENPEYENEKLTKLRNTIMEQYTRTEESARGIIFTKTRQSAYALSQWITENEKFAEVGVKAHHLIGAGHSSEFKPMTQNEQKEVISKFRTGKINLLIATTVAEEGLDIKECNIVIRYGLVTNEIAMVQARGRARADESTYVLVAHSGSGVIEHETVNDFREKMMYKAIHCVQNMKPEEYAHKILELQMQSIMEKKMKTKRNIAKHYKNNPSLITFLCKNCSVLACSGEDIHVIEKMHHVNMTPEFKELYIVRENKALQKKCADYQINGEIICKCGQAWGTMMVHKGLDLPCLKIRNFVVVFKNNSTKKQYKKWVELPITFPNLDYSECCLFSDED | binding (Flag-MAVS): binds
binds | – | HA-TBK1 (enzyme, UniProt Q9UHD2 1-729) MQSTSNHLWLLSDILGQGATANVFRGRHKKTGDLFAIKVFNNISFLRPVDVQMREFEVLKKLNHKNIVKLFAIEEETTTRHKVLIMEFCPCGSLYTVLEEPSNAYGLPESEFLIVLRDVVGGMNHLRENGIVHRDIKPGNIMRVIGEDGQSVYKLTDFGAARELEDDEQFVSLYGTEEYLHPDMYERAVLRKDHQKKYGATVDLWSIGVTFYHAATGSLPFRPFEGPRRNKEVMYKIITGKPSGAISGVQKAENGPIDWSGDMPVSCSLSRGLQVLLTPVLANILEADQEKCWGFDQFFAETSDILHRMVIHVFSLQQMTAHKIYIHSYNTATIFHELVYKQTKIISSNQELIYEGRRLVLEPGRLAQHFPKTTEENPIFVVSREPLNTIGLIYEKISLPKVHPRYDLDGDASMAKAITGVVCYACRIASTLLLYQELMRKGIRWLIELIKDDYNETVHKKTEVVITLDFCIRNIEKTVKVYEKLMKINLEAAELGEISDIHTKLLRLSSSQGTIETSLQDIDSRLSPGGSLADAWAHQEGTHPKDRNVEKLQVLLNCMTEIYYQFKKDKAERRLAYNEEQIHKFDKQKLYYHATKAMTHFTDECVKKYEAFLNKSEEWIRKMLHLRKQLLSLTNQCFDIEEEVSKYQEYTNELQETLPQKMFTASSGIKHTMTPIYPSSNTLVEMTLGMKKLKEEMEGVVKELAENNHILERFGSLTMDGGLRNVDCL | –
– | binds | endogenous TBK1 (HEK293T cells) (enzyme, UniProt Q9UHD2 1-729) MQSTSNHLWLLSDILGQGATANVFRGRHKKTGDLFAIKVFNNISFLRPVDVQMREFEVLKKLNHKNIVKLFAIEEETTTRHKVLIMEFCPCGSLYTVLEEPSNAYGLPESEFLIVLRDVVGGMNHLRENGIVHRDIKPGNIMRVIGEDGQSVYKLTDFGAARELEDDEQFVSLYGTEEYLHPDMYERAVLRKDHQKKYGATVDLWSIGVTFYHAATGSLPFRPFEGPRRNKEVMYKIITGKPSGAISGVQKAENGPIDWSGDMPVSCSLSRGLQVLLTPVLANILEADQEKCWGFDQFFAETSDILHRMVIHVFSLQQMTAHKIYIHSYNTATIFHELVYKQTKIISSNQELIYEGRRLVLEPGRLAQHFPKTTEENPIFVVSREPLNTIGLIYEKISLPKVHPRYDLDGDASMAKAITGVVCYACRIASTLLLYQELMRKGIRWLIELIKDDYNETVHKKTEVVITLDFCIRNIEKTVKVYEKLMKINLEAAELGEISDIHTKLLRLSSSQGTIETSLQDIDSRLSPGGSLADAWAHQEGTHPKDRNVEKLQVLLNCMTEIYYQFKKDKAERRLAYNEEQIHKFDKQKLYYHATKAMTHFTDECVKKYEAFLNKSEEWIRKMLHLRKQLLSLTNQCFDIEEEVSKYQEYTNELQETLPQKMFTASSGIKHTMTPIYPSSNTLVEMTLGMKKLKEEMEGVVKELAENNHILERFGSLTMDGGLRNVDCL | –
